For at least one entry, the source does not settle the construct or the ends of the probe.
biological target: YhaJ (UniProt P67660); assay: EMSA; details: 0.5 uM YhaJ, shift reduced by 20x specific, not by kan competitor, DIG Gel Shift Kit (Roche) with minor modifications, salt and pH not stated, probe stock ~0.4 ng/ul, 20 min at 30 C, 6% DNA retardation gel, recombinant protein, residues 1-298, protein details: N-terminal 6xHis (pET-28b), label: DIG (ddUTP-11-DIG), probe letters rebuilt from the primers and the genome

Chains of the proteins cited; added tags and fusions are not shown. Lines headed by an entry give the natural chain unless they say otherwise; changes in a name come on top.
UniProt P67660: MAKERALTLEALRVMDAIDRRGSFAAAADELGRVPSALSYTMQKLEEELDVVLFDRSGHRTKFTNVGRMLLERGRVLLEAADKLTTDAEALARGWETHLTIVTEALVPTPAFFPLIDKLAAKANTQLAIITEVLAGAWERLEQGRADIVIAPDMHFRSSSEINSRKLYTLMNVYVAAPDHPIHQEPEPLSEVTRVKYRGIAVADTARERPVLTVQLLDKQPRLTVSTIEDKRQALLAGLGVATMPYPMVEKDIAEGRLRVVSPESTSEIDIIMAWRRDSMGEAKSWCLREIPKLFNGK

Binding result, binds:
ACATTCCTTCAGCTGCTAGTGCGGCAGGAAGCATTTCCATTAATGAGATGAGCAACATGATCCCCGCCGCAAAACCTAGCGAAAACGCCAGTAAGCGGTTCGAGGGTTTTTGCCCGAGAACGCCGAGAAACGCGCCAATAAACGTGGCTGCCCCCGCCAGTATGGTCAGAATGAGAGGTACTGACATCGACAACTCCTTATAAATCTTCACCTTCAGGCAGATCGTCAAAATAACTGATGATCATCATCATTGTTATCCGGGTTCTTACTCCGCCGAACAAGCGTATTGTGAGGATATCAAAATGACACCTTTAGTTAAGGA (double strand) [ygiD promoter], ACTGGTTTGTCAGCGAATAATATGCAGTGATTTTTGTTTTTGCCGGGTCGCCCCGGCTTTTTTATTTTACTTACAAATTTCGAGTACAAAATTTCTACACTTCCTCAAAATAATTGCACAATATGCTAAAAAAATATGAATGACATGCTGTTTTATTGTTCATATAAATCTTAAAAGCAAAAATTTATCTGTTCCCCCCTTTAAAAATTCGGTGAATACCCTTACTTATTGGTATACTGAAGTTGCTTCAGATAAAAACGCATTGAACCTCGAATAACGTTGTCTAGTAACACGAATTAGGGGGCCATGATGGAAAAAAATAATGAAGTCATTCAGA (double strand) [yceP promoter], AGCAGCAACAACAGTATTGATAGTTTTCATAATTAATCTCTCGCAGGTGATTTTTGTATAAGTGACGTTGTTTCGTCGATGTGATGAGTATCACGTTTTTTTTCGAGAGATAAAATCGAAGAGAATTGACCGCCTTGTTCAAATAAATTGATTGATATCTAACATACTGATAATCCATTTATTTGTTGAACTTATGGACTTGTTTTATGCAGCGTGGCAGTCACGACAGCGTTAAAGGCACGGAATGCCACGCAAAATACAAATTATACTCGCTATACATCCCGCCAGTTGTAGTTAACGTAACTGGCTGTCTTTCGAACCTCTGCGATTATATC (double strand) [ybiJ promoter], CGGTCAGAGAAGAGATGAAGCCGGAGATGGGCGATTACGGGCGCGTTTATGATGCGTTGTATCAAACCATCACCAACGGTGCGCCAAATTACGTCAAGGAATCTGAAGTTCTTACCAATCTGGAAATCCTTGAACGAGGATTTGAGCAAGCCTCTCCCTCCACAGTGACTCTCGCGAAGTAAGTTTGATGGCCCCTCGAATAGTTCAATTTTTTTGAACAGAGGGGTCAATTTTCACCCTCTATCATCCCAGGCGGATCGGGTCCACACTAAGCCCATCGAAATCATTCAGGGGGCGAATAAAAATGATCTACTTACGCAAAGCAAATGA (double strand) [yhhW promoter], GCAGTTCGGGTAGTAATCATAATTCTTGACCTCTCTTTACTTCCTTTTATGGTAAGGGGCTGGACGCTACATTGTTAGCCAGATATTCTGCCCGGTATGTTCAAATTTCCTGAATGAGAACGAAATGGCCAAAGAAAGGGCATTAACGCTGGAAGCACTACGGGTTATGGATGCGATCGATCGCCGGGGCAGTTTTGCGGCGGCGGCGGATGAGCTGGGACGCGTGCCTTCCGCACTTAGCTACACCATGCAAAAACTGGAAGAAGAGCTGGATGTGGTGCTGTTTGACCGCTCGGGCCATCGTACCAAATTCACCAATG (double strand) [yhaK promoter], TGGATCTTTCCGCCAGTCGTCGTGAATGGCTGGAGGCAACAGGCGCTTACGATCGTCGCTGGAATATGCTGCTAAGTCTGCGCTCCTGGGCGCTGGTAGGCAGTAGCGTGATGGCGATCTGGACGATTCGCCATCCTAATATGCTGGTCCGCTGGGCCAGACGCGGTTTTGGCGTATGGAGCGCCTGGCGTCTGGTGAAAACGACCCTCAAGCAGCAACAACTTCGCGGTTAACTTCCCTCTGGCCGGAGCCATTCCGGCCTTATCCCTCAAATTTTTTGAAGATTTTTGACAGTTTTCCTTGCTAACATTCATCATTCACCACGTTTATG (double strand) [yqjF promoter]

Source: publication PMC5031710
